Experimental findings from paper PMC12217761 are described below.

Amino acid sequences for entries named in this document (tags omitted).
UniProt Q8CFE3: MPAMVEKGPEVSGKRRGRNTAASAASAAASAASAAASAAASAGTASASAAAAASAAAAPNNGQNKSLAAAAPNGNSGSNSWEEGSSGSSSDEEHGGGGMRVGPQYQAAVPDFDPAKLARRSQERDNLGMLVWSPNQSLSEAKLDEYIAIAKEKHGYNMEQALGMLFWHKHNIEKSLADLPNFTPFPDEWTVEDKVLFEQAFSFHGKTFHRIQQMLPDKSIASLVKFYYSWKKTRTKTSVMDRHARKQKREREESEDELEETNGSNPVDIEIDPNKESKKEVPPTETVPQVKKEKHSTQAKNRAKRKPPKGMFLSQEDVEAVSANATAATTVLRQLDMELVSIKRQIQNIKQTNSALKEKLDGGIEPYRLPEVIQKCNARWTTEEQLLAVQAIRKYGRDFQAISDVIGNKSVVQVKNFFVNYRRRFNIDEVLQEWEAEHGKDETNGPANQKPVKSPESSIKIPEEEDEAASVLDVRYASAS
UniProt P10085: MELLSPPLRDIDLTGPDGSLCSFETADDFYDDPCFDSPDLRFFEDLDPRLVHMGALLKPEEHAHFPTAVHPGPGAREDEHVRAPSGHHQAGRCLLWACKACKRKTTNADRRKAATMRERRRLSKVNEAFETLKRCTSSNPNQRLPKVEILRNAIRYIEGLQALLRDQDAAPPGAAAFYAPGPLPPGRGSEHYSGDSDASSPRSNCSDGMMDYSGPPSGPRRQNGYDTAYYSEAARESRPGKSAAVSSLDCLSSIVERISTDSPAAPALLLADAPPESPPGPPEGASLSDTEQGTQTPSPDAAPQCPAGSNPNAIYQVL

This assay addresses REST Corepressor 1 (RCOR1) (mouse (endogenous in C2C12)) (UniProt Q8CFE3). The experiment in a line: co-IP; endogenous proteins; C2C12 cells in differentiation medium for 1 day; lysates in IP buffer (10 mM Tris pH 8, 0.4% NP40, 300 mM NaCl, 10% glycerol, 1 mM DTT) diluted with one volume of dilution buffer; immunoprecipitated with anti-LSD1 antibody, anti-RCOR1 antibody or rabbit normal IgG on Dynabeads Protein G at 4 °C; immunoblotting.

Results are given in words; binding and its absence hold for the method and conditions named. Binding seen in cells or lysates may run through a third protein. Some binding calls cover weakened binding; strength is not graded here.

“myoblast determination protein 1 (MyoD) (from UniProt P10085 1-318)”: the binding entry is reported as “binds”.
